# Experimental data as given in patent US9993536B2, “Peptides and combination of peptides and scaffolds for use in immunotherapy against renal cell carcinoma (RCC) and other cancers” (immatics biotechnologies GmbH, priority 2015, dated 2018).
# How the values were obtained:
# RCC samples = experiment: Label-free relative LC-MS quantitation of HLA-presented peptides (presentation profile/score), RCC vs normal tissues; set-up: species or system human; key: very highly over-presented on tumors compared to a panel of normal tissues (+++); highly over-presented on tumors compared to a panel of normal tissues (++); over-presented on tumors compared to a panel of normal tissues (+); details: tumors (RCC) compared to a panel of normal tissues
# [1] = test system: tumor samples of other tumor types; experiment: LC-MS detection/over-presentation of peptides on additional tumor types vs normal tissues; set-up: species or system human; details: for Additional Entities: additional tumor types: over-presentation on more than 5% of measured tumor samples, or presentation on more than 5% with ratio of geometric means tumor vs normal larger than 3; for Other relevant organs/diseases: additional tumor types: over-presented on more than 5% of measured tumor samples, or presented on more than 5% with ratio of geometric means tumor vs normal tissues larger than 3
Substance,Peptide Presentation (presentation score) (RCC samples),Additional Entities [1],Other relevant organs/diseases [1]
61 (SLMGILLRI; listed as Homo sapiens) [compound 61],+++,BRCA,Leukocytes
72 (YSLEKVFGI; listed as Homo sapiens) [compound 72],+,"Brain Cancer, GC, CRC, PrC, BRCA, Melanoma, OC, Urinary bladder cancer, AML, PC",Liver
75 (FLIKSINLV; listed as Homo sapiens) [compound 75],++,"CLL, Melanoma, AML",
135: peptide found in SLC16A3 (gene looked up) (VVDEGPTGV; listed as Homo sapiens) [compound 135],+++,,"Lung, Brain, Stomach, Liver, Pancreas, Leukocytes, Breast, Ovary, Esophagus"
34 (ELNNQNFYL; listed as Homo sapiens) [compound 34],+++,"CRC, Urinary bladder cancer, AML, NHL","Melanoma, Esophagus"
130 (ALPTVLVGV; listed as Homo sapiens) [compound 130],++,,"Lung, Brain, Stomach, Colon, Rectum, Liver, Melanoma, Esophagus"
73 (GLDGIPFTV; listed as Homo sapiens) [compound 73],++,"GC, Urinary bladder cancer, Uterine Cancer, AML","Brain, Pancreas, Breast, Melanoma"
133 (QLIDYERQL; listed as Homo sapiens) [compound 133],++,,"Lung, Colon, Rectum, Liver, Pancreas, Esophagus"
100 (KLNVAPLAV; listed as Homo sapiens) [compound 100],+,"CLL, BRCA, Uterine Cancer, AML, NHL, OC","Lung, Brain, Colon, Rectum, Liver, Pancreas, Melanoma, Ovary"
30 (QLFYTKIFL; listed as Homo sapiens) [compound 30],++,"Melanoma, Esophageal Cancer, Urinary bladder cancer, Uterine Cancer, Gallbladder Cancer, Bile Duct Cancer","Lung, Colon, Rectum, Ovary"
8 (GLASFKSFL; listed as Homo sapiens) [compound 8],+++,"Melanoma, Urinary bladder cancer, Uterine Cancer, Gallbladder Cancer, Bile Duct Cancer",Pancreas
45 (ALLGIPLTL; listed as Homo sapiens) [compound 45],++,,"Prostate, Ovary, Esophagus"
44 (ALFSFVTAL; listed as Homo sapiens) [compound 44],+,,"Lung, Melanoma, Ovary"
38 (VLLDTILQL; listed as Homo sapiens) [compound 38],+++,"NSCLC, SCLC, CLL, BRCA, Esophageal Cancer, Urinary bladder cancer, Uterine Cancer, Gallbladder Cancer, Bile Duct Cancer, AML, NHL, OC","Brain, Liver, Pancreas, Melanoma, Ovary"
126: peptide found in IGF2BP3 (gene looked up) (KIQEILTQV; listed as Homo sapiens) [compound 126],+++,,"Lung, Brain, Stomach, Colon, Rectum, Liver, Pancreas, Leukocytes, Ovary, Esophagus"
124 (ILSPLSVAL; listed as Homo sapiens) [compound 124],+,,"Liver, Pancreas"
121 (ALLRTVVSV; listed as Homo sapiens) [compound 121],++,,"Lung, Liver, Pancreas, Breast, Ovary"
21 (RLIQGDQILSV; listed as Homo sapiens) [compound 21],+++,"SCLC, BRCA, Esophageal Cancer, Urinary bladder cancer, Uterine Cancer, Gallbladder Cancer, Bile Duct Cancer, OC","Lung, Colon, Rectum, Liver, Ovary"
103 (KLQDGLLHI; listed as Homo sapiens) [compound 103],+++,"SCLC, PC, Melanoma, OC, NHL","Brain, Colon, Rectum, Liver"
116 (GLVDIMVHL; listed as Homo sapiens) [compound 116],+++,,Ovary

Substance,Peptide Presentation (presentation score) (RCC samples),Additional Entities [1],Other relevant organs/diseases [1]
117 (VLFGELPAL; listed as Homo sapiens) [compound 117],+++,,"Lung, Pancreas, Breast, Ovary"
32 (FLAGGIRGSGA; listed as Homo sapiens) [compound 32],+++,,Stomach
132 (SVASTITGV; listed as Homo sapiens) [compound 132],++,,"Liver, Breast"
102 (LLFDVHTTL; listed as Homo sapiens) [compound 102],+,"SCLC, Melanoma, Urinary bladder cancer, Uterine Cancer, AML","Lung, Brain"
5 (YLYPNLTRL; listed as Homo sapiens) [compound 5],+++,,Liver
90 (FTLEKNFVI; listed as Homo sapiens) [compound 90],++,"CRC, BRCA, PC",Prostate
55 (YLALILPVL; listed as Homo sapiens) [compound 55],+++,CLL,Melanoma
31 (VLFGLDPAVIKV; listed as Homo sapiens) [compound 31],+,,"Brain, Ovary"
122 (SLDPSSPQV; listed as Homo sapiens) [compound 122],++,,Liver
29 (ILLDLEQAL; listed as Homo sapiens) [compound 29],+,"Melanoma, Urinary bladder cancer, Uterine Cancer, Gallbladder Cancer, Bile Duct Cancer, AML, NHL, OC","Lung, Pancreas, Prostate, Breast, Ovary"
66 (TLLKTIIKV; listed as Homo sapiens) [compound 66],++,"Melanoma, Urinary bladder cancer",Brain
136 (YQDPHSTAV; listed as Homo sapiens) [compound 136],++,,"Brain, Liver"
99 (GLAPHLEQI; listed as Homo sapiens) [compound 99],+,"BRCA, Melanoma, AML, NHL","Liver, Ovary"
2 (ILWREVVTL; listed as Homo sapiens) [compound 2],+++,"Melanoma, NHL",Ovary
40 (YIQEHLLQI; listed as Homo sapiens) [compound 40],++,Melanoma,
36 (SLFGKKYIL; listed as Homo sapiens) [compound 36],+++,"Urinary bladder cancer, Uterine Cancer, Gallbladder Cancer, Bile Duct Cancer","Colon, Rectum"
91 (MLLSSLVSL; listed as Homo sapiens) [compound 91],+,"SCLC, Melanoma, Urinary bladder cancer, Gallbladder Cancer, Bile Duct Cancer","Lung, Liver"
43 (YLKDELDEL; listed as Homo sapiens) [compound 43],+++,"Esophageal Cancer, Gallbladder Cancer, Bile Duct Cancer, NHL",
115 (LLDPKTIFL; listed as Homo sapiens) [compound 115],+++,,"Colon, Rectum, Liver"
